Laboratory results published in article doi:10.1101/2020.10.14.337444.
The exact form of at least one protein or probe is not confirmed. Weaker means in comparison with the reference protein, sequence or condition of that experiment. For some assays here: At least one verdict rests on a figure or table, not on a statement of the authors.

By UniProt entry, the sequences of proteins in these tests, tags left out.
UniProt P06733, whole entry: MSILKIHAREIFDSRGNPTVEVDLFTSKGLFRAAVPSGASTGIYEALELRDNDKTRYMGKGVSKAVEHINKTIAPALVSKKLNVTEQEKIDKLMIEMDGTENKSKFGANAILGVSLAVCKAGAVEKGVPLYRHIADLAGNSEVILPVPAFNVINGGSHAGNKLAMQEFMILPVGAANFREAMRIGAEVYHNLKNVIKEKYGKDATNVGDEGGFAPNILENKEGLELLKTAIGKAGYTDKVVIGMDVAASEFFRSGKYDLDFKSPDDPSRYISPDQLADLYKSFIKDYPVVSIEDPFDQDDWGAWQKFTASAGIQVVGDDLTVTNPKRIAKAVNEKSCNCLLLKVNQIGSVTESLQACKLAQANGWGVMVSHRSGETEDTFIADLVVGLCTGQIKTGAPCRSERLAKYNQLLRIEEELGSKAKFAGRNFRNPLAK
UniProt P06733, whole entry K343A: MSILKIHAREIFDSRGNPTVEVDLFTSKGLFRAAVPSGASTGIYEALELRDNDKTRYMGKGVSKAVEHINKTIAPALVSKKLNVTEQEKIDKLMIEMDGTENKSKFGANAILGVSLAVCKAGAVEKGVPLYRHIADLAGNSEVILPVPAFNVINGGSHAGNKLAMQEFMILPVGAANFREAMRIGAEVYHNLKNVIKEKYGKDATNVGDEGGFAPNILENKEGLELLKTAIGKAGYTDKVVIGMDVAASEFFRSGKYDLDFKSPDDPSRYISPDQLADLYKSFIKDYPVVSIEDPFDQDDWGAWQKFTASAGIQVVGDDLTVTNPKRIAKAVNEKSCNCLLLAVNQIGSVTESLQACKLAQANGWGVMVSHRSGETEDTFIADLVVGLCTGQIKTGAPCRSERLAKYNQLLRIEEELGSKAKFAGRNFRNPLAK

Key:
ENO1 wt (Homo sapiens) [1] = molecular target: ENO1 wt (Homo sapiens) (UniProt P06733); experiment: competition EMSA; settings: Ki only in figure
[2] = molecular target: ENO1down K343A (Homo sapiens) (UniProt P06733); experiment: competition EMSA; settings: Ki only in figure
ENO1 wt (Homo sapiens) [3] = molecular target: ENO1 wt (Homo sapiens) (UniProt P06733); experiment: EMSA

Sequence | binding result (ENO1 wt (Homo sapiens) [1]; probe FTH1 target) | binding result (ENO1 wt (Homo sapiens) [1]; probe PTP4A1 target) | further results
CCCUCCGUCACCUCUUCACCGCACCCUCGGACUGC [FTH1 target 35-mer] | binds | – | binding result ([2]; probe FTH1 target): binds more weakly
CCUCUUUUAUAAAAUAACCCGGUGAAGCAGCCGAG [PABPC1 target 35-mer] | – | – | binding result (ENO1 wt (Homo sapiens) [3]; 2-phosphoglycerate (competes)): binds more weakly; binding result (ENO1 wt (Homo sapiens) [3]; phosphoenolpyruvate (competes)): binds more weakly
CUGCAUGGUAGAGUCUGGUGCCCCCGCCGCCGCCU [PTP4A1 target 35-mer] | – | binds | binding result ([2]; probe PTP4A1 target): binds more weakly
GCGCCAGAACUACCACCAGGACUCAGAGGCCGCCA [FTH1 control 35-mer] | binds more weakly | – | –
GGUUCCAGCCCUAGAAGGAUUGCAUUUUACGAUUC [PTP4A1 control 35-mer] | – | binds more weakly | –
